# Measurements from PubChem BioAssay AID504834 (National Center for Advancing Translational Sciences (NCATS), 2011).
# Hit rate of the full screen: of about 320,000 compounds, about 22,000 (6.9%) were called active. The shares of active, inactive and inconclusive entries below differ from those in the screen. The call rests on the fitted dose curve; in most records, active means well fitted inhibition curve with a large enough effect; inconclusive means small, poorly fitted or top-dose-only effect, or another doubt; inactive means no such curve, though single readings can be large or run the other way. Potencies beside an inconclusive call are fits to weak or partial responses and may not hold up.
# Assay: Primary qHTS for delayed death inhibitors of the malarial parasite plastid, 96 hour incubation
# Settings: P. falciparum luciferase reporter growth; series mostly up to 28.7 µM; activity change, negative = inhibition: at the top concentration
# Method in brief: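 Luminescence readout: decreased luciferase signal marks inhibited growth of reporter-expressing P. falciparum in infected red cells (2% hematocrit, 0.05% parasitemia final), exposed to compound two generations (96 h, 37 C, 5% CO2).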
# On the % scale 0 is the no-effect control and ±100 the full control effect; potency means the concentration at half of the fitted maximal effect.
Compound,Potency,"activity change, negative = inhibition"
CCCCN(C(=O)c1cc(S(=O)(=O)N2CCCCCC2)ccc1OC)c1ccccc1,"inconclusive: 5.86 µM [inhibitor, partial curve]",
CN1CCN(C(=O)COc2ccc(Oc3ccccc3)cc2)CC1,,inactive: -0.885%
CCn1c(/C=C/c2ccc([N+](=O)[O-])o2)nc2ccccc2c1=O,"inconclusive: 0.104 µM [inhibitor, full curve, poor fit]",
N=c1c(C(=O)NCC2CCCO2)cc2c(=O)n3ccccc3nc2n1C1CCCC1 (stereo not drawn),,inactive: -12.6%
Cc1c(NC(=S)NC(NC(=O)C(C)C)C(Cl)(Cl)Cl)c(=O)n(-c2ccccc2)n1C (stereo not drawn),"inconclusive: 11.7 µM [inhibitor, single point]",
CN(CCO)c1cc(N2CCC3(CC2)OCCO3)c2nonc2c1[N+](=O)[O-],"inconclusive: 10.4 µM [inhibitor, single point]",
O=C(C1CCCC1)N1CCN=C1SCc1cccc([N+](=O)[O-])c1,"inconclusive: 3.7 µM [inhibitor, single point]",
CN(C)/C=C/C(=O)c1ccc2noc(-c3ccc(F)cc3)c2c1,,inactive: 8.79%
COc1cc(S(=O)(=O)N2CCN(C(=O)c3ccccc3F)CC2)c(OC)cc1NC(C)=O,"inconclusive: 10.4 µM [inhibitor, single point]",
CNC(=S)NNC(=O)c1cc(C(C)(C)C)nn1Cc1ccc(F)cc1,"inconclusive: 5.86 µM [inhibitor, partial curve]",
COC(=O)C1CCN(C(=O)Nc2ccc(OC)cc2)CC1,,inactive: 0%
Cc1ccc(C(C)C)c(OCCNC(=S)Nc2cccc3ccccc23)c1,"inconclusive: 13.1 µM [inhibitor, partial curve, poor fit]",
Cc1cc(C)n(CCc2nc(-c3ccc(C(C)(C)C)cc3)cs2)n1,"inconclusive: 18.5 µM [inhibitor, single point]",
Cc1cc(C)n(CC(=O)NNC(=O)COc2ccc(Cl)cc2Cl)n1,"inconclusive: 6.57 µM [inhibitor, partial curve, poor fit]",
O=C(CS(=O)(=O)c1ccc(F)cc1)Nc1nnc(-c2ccccc2Cl)o1,,inactive: -0.426%
COc1ccc(C(CNC(=O)CNC(=O)c2ccccc2)N2CCCC2)cc1 (stereo not drawn),"inconclusive: 2.08 µM [inhibitor, single point]",
CC12CCC(=O)N1C(C(=O)NCCc1ccc(S(N)(=O)=O)cc1)CS2 (stereo not drawn),"inconclusive: 9.28 µM [inhibitor, partial curve]",
Cc1ccccc1C(=O)N1CCN(CCNC(=O)C(=O)Nc2ccc(Br)cc2)CC1,"inconclusive: 11.7 µM [inhibitor, single point]",
CCOC(=O)N1CCC(N2CC34C=CC(O3)C(C(=O)Nc3ccc(F)cc3)C4C2=O)CC1 (stereo not drawn),active: 14.7 µM,
CCOC(=O)C1CCN(C(=O)C2CCN(S(=O)(=O)c3cccc4nsnc34)CC2)CC1,"inconclusive: 0.0033 µM [inhibitor, full curve, poor fit]",
O=C(Cn1c(=O)[nH]c2ccsc2c1=O)NC1CCCCCC1,"inconclusive: 0.262 µM [inhibitor, full curve, poor fit]",
Cc1ccccc1C(=O)NC(=S)NCc1cccnc1,,inactive: 1.44%
CC(=O)NC(Nc1c(C)n(C)n(-c2ccccc2)c1=O)C(Cl)(Cl)Cl (stereo not drawn),"inconclusive: 4.65 µM [inhibitor, partial curve, poor fit]",

# Fetched one by one from above, four records:
Compound,Potency,"activity change, negative = inhibition"
COc1cc(S(=O)(=O)N2CCN(C(=O)c3ccccc3F)CC2)c(OC)cc1NC(C)=O,"inconclusive: 10.4 µM [inhibitor, single point]",
O=C(C1CCCC1)N1CCN=C1SCc1cccc([N+](=O)[O-])c1,"inconclusive: 3.7 µM [inhibitor, single point]",
COC(=O)C1CCN(C(=O)Nc2ccc(OC)cc2)CC1,,inactive: 0%
Cc1ccc(C(C)C)c(OCCNC(=S)Nc2cccc3ccccc23)c1,"inconclusive: 13.1 µM [inhibitor, partial curve, poor fit]",

# Remaining list, next part:

Compound,Potency,"activity change, negative = inhibition"
CCCCNC(=O)[C@@H]1CSC2c3ccc(OC)c(OC)c3C(=O)N21 (stereo partly drawn),,inactive: 0.284%
C=CCn1c(=N)n(CC(=O)OCC)c2ccccc21,"inconclusive: 18.5 µM [inhibitor, single point]",
O=C(O)c1cccc2c1C(=O)c1ccc(-c3ccc(F)cc3F)cc1S2(=O)=O,,inactive: 60.7%
COc1ccc(-n2c(SCC(=O)O)nc3sc4c(c3c2=O)CCCC4)cc1,,inactive: -4.33%
CCOC(=O)C1=C(Nc2cccc(Cl)c2)OCC1=O,active: 9.28 µM,
Cc1ccc(-c2cc(-c3n[nH]c(=S)n3C)c3ccccc3n2)cc1,"inconclusive: 16.5 µM [inhibitor, single point]",
Cc1nc(Nc2cccc(Cl)c2)c2oc3ccccc3c2n1,"inconclusive: 11.7 µM [inhibitor, single point]",
CCc1ccccc1NC(=S)NCc1ccc2c(c1)OCO2,"inconclusive: 0.208 µM [inhibitor, full curve, poor fit]",
Cc1cc(C)n2nc(SCC(=O)Nc3ccc(O)cc3)nc2n1,"inconclusive: 18.5 µM [inhibitor, single point]",
CC1CC(OCC(O)CN2CCCCC2C)CC(C)(C)C1 (stereo not drawn),"inconclusive: 11.7 µM [inhibitor, single point]",
O=C1OCC2=C1C(c1ccc(F)cc1)c1cc3c(cc1N2)OCO3 (stereo not drawn),,inactive: 32.5%
Cc1cccc(C)c1N=Nc1c(C)cc(O)cc1C,"inconclusive: 10.4 µM [inhibitor, single point]",
C[C@@H]1C(=O)O[C@@H]2[C@H](O)C34[C@H]5C[C@@H](C(C)(C)C)C36[C@H](OC(=O)[C@@H]6O)OC4(C(=O)O5)[C@@]12O (stereo partly drawn),"inconclusive: 0.0657 µM [inhibitor, full curve, poor fit]",
Cc1cc(NC(=O)Cc2cccs2)nn1CC(=O)NCc1ccco1,"inconclusive: 18.5 µM [inhibitor, single point]",
CC(=O)c1ccc(N2CCN(C(=S)Nc3ccccc3F)CC2)cc1,"inconclusive: 2.08 µM [inhibitor, partial curve, poor fit]",
COC(=O)COc1cccc2c(=O)n(CC(=O)NCCc3ccc(OC)c(OC)c3)ccc12,"inconclusive: 18.5 µM [inhibitor, single point]",
CCCc1cc2c(=O)c(-c3ccc4c(c3)OCCO4)coc2cc1OS(C)(=O)=O,"inconclusive: 18.5 µM [inhibitor, single point]",
C=CCNC(=S)/N=c1/ccccn1C,"inconclusive: 2.62 µM [inhibitor, full curve, poor fit]",
Cc1cccc(-n2c(O)c(C=Nc3ccccc3-c3n[nH]c(=S)[nH]c3=O)c3ccccc3c2=O)n1,"inconclusive: 0.233 µM [inhibitor, full curve, poor fit]",
O=C1c2oc3ccccc3c(=O)c2C(c2ccccn2)N1Cc1ccccc1 (stereo not drawn),"inconclusive: 11.7 µM [inhibitor, single point]",
S=C(c1ccccc1)N(c1ccccc1)c1ccccc1,"inconclusive: 18.5 µM [inhibitor, single point]",
Cc1ccc(-c2cc(C(=O)N3CCN(c4ncccn4)CC3)c3ccccc3n2)cc1,,inactive: 12.5%
N#Cc1c(NCCN)nc(-c2ccco2)c2c1CCCC2,"inconclusive: 18.5 µM [inhibitor, single point]",

Compound,Potency,"activity change, negative = inhibition"
Cc1nn(-c2ccccc2)c(N)c1N=O,,inactive: 20.8%
O=C(C1=C[C@@H](c2coc3ccccc3c2=O)C[C@@H](OCCCCO)O1)N1CCN(Cc2ccccc2)CC1,"inconclusive: 2.94 µM [inhibitor, full curve, poor fit]",
CC(C)N(C(=O)N1CCN(c2ccnc3cc(Cl)ccc23)CC1)C(C)C,active: 8.28 µM,
COc1cccc(CNC(=O)c2cc(C3CC3)nc3c2cnn3C(C)C)c1,active: 3.29 µM,
CCN(C(=O)CN1C(=O)NC2(CCCc3ccccc32)C1=O)c1ccc(F)cc1 (stereo not drawn),"inconclusive: 1.04 µM [inhibitor, partial curve, poor fit]",
CCOC(=O)C1C(c2cccc(F)c2)NC(=S)NC1(O)C(F)(F)F (stereo not drawn),,inactive: -29.1%
CN(CC1COc2ccccc2O1)C(=S)NC1CCCCC1 (stereo not drawn),"inconclusive: 5.22 µM [inhibitor, partial curve, poor fit]",
COc1ccccc1N1CCN(Cc2ccc(Br)cc2)CC1,,inactive: 57.6%
CC(C)c1ccc(NC(=O)C2CCN(c3ncnc4c3nc3n4CCCCC3)CC2)cc1,"inconclusive: 18.5 µM [inhibitor, single point]",
O=C(O)c1cc(-c2ccc(Cl)cc2)n(-c2ccc(F)cc2)n1,"inconclusive: 1.31 µM [inhibitor, partial curve]",
CCCCN(CC)S(=O)(=O)c1ccc(C(=O)N=c2sc3cc(NC(C)=O)ccc3n2C)cc1,"inconclusive: 5.86 µM [inhibitor, partial curve]",
CCOc1ccc(NC(=O)c2ccccc2C(=O)c2ccccc2)cc1OCC,"inconclusive: 18.5 µM [inhibitor, single point]",
CNC1CCCN(c2c(F)cc3c(=O)c(C(=O)O)cn(C4CC4)c3c2OC)C1 (stereo not drawn),active: 4.26 µM,
COc1cccc2cc(C(=O)NCCC3=CCCCC3)c(=O)oc12,"inconclusive: 18.5 µM [inhibitor, single point]",
O=C(N/N=C/c1cnc(N2CCCCC2)s1)c1ccc(C(F)(F)F)cc1,"inconclusive: 6.57 µM [inhibitor, partial curve]",
O=C(Cc1cccs1)Nc1nnc(SCc2cccc3ccccc23)s1,,inactive: 0%
COCCNCCCOc1ccc(Cl)cc1Br,"inconclusive: 6.57 µM [inhibitor, partial curve, poor fit]",
COc1ccc(NS(=O)(=O)c2ccc(O)c(C(=O)OCC(=O)Nc3ccc4c(c3)OCCO4)c2)cc1,,inactive: -7.58%
CC1Oc2ccccc2N(CC(=O)NC2CC2)C1=O (stereo not drawn),,inactive: 15.6%
OC(CCN1CCCCC1)(c1ccccc1)C1C[C@@H]2C=C[C@H]1C2 (stereo partly drawn),"inconclusive: 18.5 µM [inhibitor, single point]",
CC(Sc1nnc(-c2ccccc2F)n1C1CC1)C(=O)NCc1ccco1 (stereo not drawn),"inconclusive: 18.5 µM [inhibitor, single point]",
Fc1ccccc1CNC(=S)Nc1ccc(Cl)cc1,"inconclusive: 10.4 µM [inhibitor, single point]",
